SMILES strings stand for the structures. Over roughly 3,200 compounds, “TSA(without NAD+) / Primary screening (TSA) / delta Tm (K)” has its median near -0.07; the highest 2% begin near 0.37. This is one part of the list.

By UniProt entry, the sequences of proteins in these tests, tags left out. Residues count along the entry.
UniProt Q96EB6, 2-747 limits assumed: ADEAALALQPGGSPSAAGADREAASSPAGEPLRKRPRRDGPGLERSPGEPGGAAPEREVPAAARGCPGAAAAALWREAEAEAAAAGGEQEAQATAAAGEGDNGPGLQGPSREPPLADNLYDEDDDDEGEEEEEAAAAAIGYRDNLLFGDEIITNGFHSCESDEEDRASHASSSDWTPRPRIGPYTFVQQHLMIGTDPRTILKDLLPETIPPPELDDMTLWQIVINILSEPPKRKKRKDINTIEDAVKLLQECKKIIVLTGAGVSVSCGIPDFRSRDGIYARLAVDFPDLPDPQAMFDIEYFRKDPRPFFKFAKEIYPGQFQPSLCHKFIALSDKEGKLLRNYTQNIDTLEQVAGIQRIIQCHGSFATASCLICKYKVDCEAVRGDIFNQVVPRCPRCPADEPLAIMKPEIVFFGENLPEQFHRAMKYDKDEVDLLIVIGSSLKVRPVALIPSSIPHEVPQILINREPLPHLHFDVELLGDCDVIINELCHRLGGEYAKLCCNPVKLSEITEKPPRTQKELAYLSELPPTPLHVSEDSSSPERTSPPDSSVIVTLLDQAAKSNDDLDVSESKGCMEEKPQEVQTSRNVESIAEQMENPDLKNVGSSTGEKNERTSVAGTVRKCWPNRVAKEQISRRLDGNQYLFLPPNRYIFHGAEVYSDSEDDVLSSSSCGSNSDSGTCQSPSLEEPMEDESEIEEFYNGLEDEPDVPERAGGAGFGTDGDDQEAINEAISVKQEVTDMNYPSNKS

In this assay the target is NAD-dependent deacetylase Sirtuin 1 (human, UniProt Q96EB6). The assay can be described thus: primary screen, delta tm. More on the design: single well (n = 1). The following applies: 10 µM. In outline:
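Thermal shift of Sirtuin 1 measured without NAD+, compound at 10 µM (n = 1); value is ΔTm, with hits defined as ΔTm > 0.45 K or < −1.5 K. Hits retested at 5, 10, 20 µM (n = 4) and counterscreened on bovine carbonic anhydrase and ABL1 SH2 domain.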
On to `CN(c1ccccc1C(N)=O)S(=O)(=O)c1ccc2c3c(cccc13)C(=O)N2`, for which the “TSA(without NAD+) / Primary screening (TSA) / delta Tm (K)” value is given as -0.18 K. The figure for `COc1ccc(C(=O)C2=C(O)C(=O)N(CCCN3CCOCC3)C2c2ccc(C)cc2)cc1OC` (stereo not shown) is -0.13 K; for `c1ccc2c3c(ccc2c1)C(Nc1ccc2nnnn2n1)CCCO3` (stereo not shown) it is 0.22 K. The figure for `CCn1c(SCC(=O)NCc2cccs2)nc2ccsc2c1=O` is -0.01 K.

In the case of `CC(OC(=O)Cc1coc2cc(O)ccc12)C(=O)c1c[nH]c2ccccc12` (stereo not shown), the “TSA(without NAD+) / Primary screening (TSA) / delta Tm (K)” value is listed as -0.04 K. As to `CC1CCCN(CCCNC(=O)CCc2cc3ccccc3[nH]c2=O)C1` (stereo not shown), the “TSA(without NAD+) / Primary screening (TSA) / delta Tm (K)” value is -0.13 K. For the compound `CCn1c(SC(C)C(=O)Nc2sc3c(c2C(N)=O)CCC3)nnc1N1CCOCC1` (stereo not shown), the “TSA(without NAD+) / Primary screening (TSA) / delta Tm (K)” value was -0.04 K. The figure for `Cc1nnc(N2CCN(C(=O)NC3CC3)CC2)c(C(N)=O)c1C` is 0.05 K. Consider `O=C1/C(=C/c2cccc(F)c2)Oc2cc(O)ccc21`, for which the “TSA(without NAD+) / Primary screening (TSA) / delta Tm (K)” value worked out at 0.09 K.

For the compound `O=C(CSc1nnc(NC2CC2)s1)N(Cc1ccccc1)c1nc2c(s1)CCCC2`, the “TSA(without NAD+) / Primary screening (TSA) / delta Tm (K)” value was -0.11 K. The figure for `NC(=O)NC(=O)CCN1CCN(CC(=O)Nc2ccccc2)CC1` is -0.14 K; for `CCN(CC)S(=O)(=O)c1ccc(OC(C)C)c(NC(=O)CC23CC4CC(CC(O)(C4)C2)C3)c1` it is -0.04 K. As to `COc1ccc(N(C)S(=O)(=O)c2cccc(C(=O)Nc3ccc(C)cc3)c2)cc1`, the “TSA(without NAD+) / Primary screening (TSA) / delta Tm (K)” value came to 0.17 K. The figure for `CN(C)S(=O)(=O)c1ccc(C(=O)C2=C(O)C(=O)N(CCN3CCOCC3)C2c2ccccc2)cc1` (stereo not shown) is -0.03 K; for `CCN(CC(=O)Nc1ccc(OC)cc1)CC(=O)Nc1ccc(C(N)=O)cc1` it is -0.31 K; for `O=C(CN1CCN(C(=O)c2ccc(-c3ccc(F)cc3)o2)CC1)Nc1cccc(F)c1` it is 0.22 K. The figure for `O=S(=O)([O-])CCS` is -0.13 K; for `O=c1c2ccccc2n2c(SCC3CCCCO3)nnc2n1Cc1ccccc1` (stereo not shown) it is -0.21 K; for `O=C1NC(=O)C(=Cc2cn(-c3ccccc3)nc2-c2cc3c(ccc4ccccc43)oc2=O)C(=O)N1` it is -0.03 K. `CCc1nsc(N2CCC(Oc3ccnc(C(N)=O)c3)CC2)n1`: the “TSA(without NAD+) / Primary screening (TSA) / delta Tm (K)” value is recorded as -0.15 K. The figure for `CNc1ncnc2ccsc12` is -0.01 K; for `COCc1nc(NCC(c2ccc(OC)cc2)N2CCOCC2)c2c(-c3ccccc3)csc2n1` (stereo not shown) it is -0.08 K; for `O=C(CN1CCOCC1)N1CCN(Cc2ccc3c(c2)OCO3)CC1` it is -0.02 K. The figure for `CN1CCCN(c2ccc(NC(=O)NCCCNC(=O)c3cccc(O)c3)cc2F)CC1` is 0.02 K; for `Cc1cc(C)nc(-n2nc(C)cc2NC(=O)CCc2ccc(S(=O)(=O)N3CCOCC3)cc2)n1` it is -0.18 K; for `COc1cccc(C#CCO)c1` it is -0.22 K. The figure for `O=S(=O)([O-])CCl` is -0.23 K. For the compound `Cc1ccccc1CNC(=O)CSc1nc2ccsc2c(=O)n1C`, the “TSA(without NAD+) / Primary screening (TSA) / delta Tm (K)” value is -0.17 K. The figure for `C[C@@H]1O[C@@H]1P(=O)([O-])[O-]` is -0.07 K; for `O=C(NCc1nnc2n1CCCCC2)c1ccc(-c2ccccc2)cc1` it is -0.03 K. The figure for `CN(CC(=O)Nc1cccc2ccccc12)C(=O)C1=COCCO1` is -0.23 K. In the case of `C=CCNc1nnc(SCC(=O)N(Cc2ccccc2)c2nc3c(s2)CCCC3)s1`, the “TSA(without NAD+) / Primary screening (TSA) / delta Tm (K)” value is 0.13 K. Turning to `O=C(CCc1c[nH]c2ccccc12)Nc1nnc(-c2ccccc2)o1`, the “TSA(without NAD+) / Primary screening (TSA) / delta Tm (K)” value was found to be 0.52 K. The figure for `O=C(Nc1ccc(F)cc1F)c1ccc(/C=N/c2ccc(F)cc2F)cc1` is -0.14 K; for `Oc1ccccc1O` it is 0.06 K; for `Cc1ccccc1C1CC1C(=O)N1C2C=C(c3ccccc3)CC1CC2` (stereo not shown) it is -0.24 K. The figure for `COC(=O)Cn1c(CN2CCC(C(N)=O)CC2)nc2c1c(=O)n(C)c(=O)n2C` is 0.05 K; for `COC(=O)c1ccc2[nH]c(=O)[nH]c2c1OC` it is -0.07 K; for `CC(CSc1nc2ccccc2o1)Cn1c(N2CCC(C(N)=O)CC2)nc2c1c(=O)[nH]c(=O)n2C` (stereo not shown) it is -0.14 K. Turning to `CCCOc1ccc(C2C(C(=O)c3ccco3)=C(O)C(=O)N2CCCN2CCOCC2)cc1` (stereo not shown), the “TSA(without NAD+) / Primary screening (TSA) / delta Tm (K)” value was -0.12 K. On to `O=C1/C(=C/c2ccccc2Br)Oc2cc(O)ccc21`, for which the “TSA(without NAD+) / Primary screening (TSA) / delta Tm (K)” value came out at 0.03 K.

As for `O=C1CC(Cc2ccc(NC(=O)c3cc4ccccc4[nH]3)cc2)C(=O)N1` (stereo not shown), the “TSA(without NAD+) / Primary screening (TSA) / delta Tm (K)” value was -0.02 K. The figure for `CC(N)CCc1ccc(O)cc1` (stereo not shown) is -0.03 K.

As for `CN(C)C(=O)c1ccc2[nH]c3c(c2c1)CCCC3`, the “TSA(without NAD+) / Primary screening (TSA) / delta Tm (K)” value is given as -0.18 K. The figure for `COCC(C)(N)CN` (stereo not shown) is -0.07 K.

On to `COc1ccc(-n2c(C)c(C)c3c(N)ncnc32)cc1`, for which the “TSA(without NAD+) / Primary screening (TSA) / delta Tm (K)” value was -0.28 K. Regarding `CCC(NC(=O)c1ccc(C(N)=O)cc1)C(c1ccc(C)cc1)n1cncn1` (stereo not shown), the “TSA(without NAD+) / Primary screening (TSA) / delta Tm (K)” value was -0.21 K. The figure for `CCc1ccc(C(=O)Nc2ccccc2C(=O)OC)cc1` is -0.17 K. Regarding `O=C(CN1CCN(C(=O)c2ccc(-c3ccccc3Cl)o2)CC1)Nc1cccc(F)c1`, the “TSA(without NAD+) / Primary screening (TSA) / delta Tm (K)” value turned out to be 0.06 K. The figure for `Cc1ccc(-c2nc(CC(=O)Nc3cccc(Cn4[nH]c(=O)ccc4=O)c3)cs2)o1` is -0.03 K; for `CCn1c(C)cc(C(=O)OC(C)C(=O)Nc2ccc(C(N)=O)cc2)c1C` (stereo not shown) it is -0.07 K. For the compound `Cc1ccc(C(C)C)c(OCC(=O)Nc2cc(C(N)=O)ccc2N2CCCC2)c1`, the “TSA(without NAD+) / Primary screening (TSA) / delta Tm (K)” value is listed as -0.03 K. The figure for `CCc1ccc(CNC(=O)CCCc2nc(-c3ccc(F)cc3)no2)cc1` is -0.15 K. The figure for `COc1cc(CN(C)C(=O)c2ccc(C)c(NC(=O)c3ccco3)c2)ccc1OCc1ccccc1` is 0.18 K.

For the compound `CN(c1ccc(F)c(F)c1)S(=O)(=O)c1ccc2nc[nH]c(=O)c2c1`, the “TSA(without NAD+) / Primary screening (TSA) / delta Tm (K)” value stood at 0.19 K.

As for `c1ccc(-c2noc(CN3CCN(c4nc(-c5ccsc5)nc5ccccc45)CC3)n2)cc1`, the “TSA(without NAD+) / Primary screening (TSA) / delta Tm (K)” value was determined as 0.18 K. On to `COC(=O)c1c(C)[nH]c(C(=O)NCCc2ccc(-n3cccn3)cc2)c1C`, for which the “TSA(without NAD+) / Primary screening (TSA) / delta Tm (K)” value was 0.17 K. Turning to `CCn1nc(C(=O)N(C)Cc2ccc(OCc3ccccc3)c(OC)c2)c2ccccc2c1=O`, the “TSA(without NAD+) / Primary screening (TSA) / delta Tm (K)” value is -0.05 K. The figure for `COC(=O)c1ccccc1NC(=O)Cc1c[nH]c2ccccc12` is -0.22 K; for `Cn1ccnc1-c1sc(NC(=O)c2ccccc2Br)nc1-c1ccccc1` it is 0.02 K; for `COc1ccc(OC)c(C2CCCN2C(=O)c2ccc(NC(=O)c3ccco3)s2)c1` (stereo not shown) it is -0.02 K.

On to `NC(=S)c1cccc(NC(=O)CN2CCOCC2)c1`, for which the “TSA(without NAD+) / Primary screening (TSA) / delta Tm (K)” value is -0.31 K. The figure for `NC(=O)c1ccc(COC(=O)c2ccc(S(=O)(=O)NC3CC3)cc2)cc1` is -0.08 K. The figure for `COc1ccc(NC(=O)CC23CC4CC(C2)CC(CC(=O)Nc2ccc(OC)cc2)(C4)C3)cc1` is 0.15 K; for `CC(C)CC(=O)Nc1ccc(C(=O)COC(=O)CNC(=O)CC23CC4CC(CC(C4)C2)C3)cc1` it is -0.04 K; for `C=CCOc1ccc(C2C(C(=O)c3ccco3)=C(O)C(=O)N2CCCN2CCOCC2)cc1` (stereo not shown) it is -0.33 K. For `CCNC(=O)NCc1ccc(NC(=O)c2ccc([N+](=O)[O-])cc2)cc1`, the “TSA(without NAD+) / Primary screening (TSA) / delta Tm (K)” value was -0.27 K. On to `CC(OC(=O)c1ccc(CS(C)(=O)=O)cc1)C(=O)NCc1ccco1` (stereo not shown), for which the “TSA(without NAD+) / Primary screening (TSA) / delta Tm (K)” value stood at 0.22 K. The figure for `O=C(Nc1nnc[nH]1)C1CC(=O)N(c2ccc3c(c2)CCC3)C1` (stereo not shown) is -0.01 K. The figure for `CN(CCC#N)C(=O)C(C)(C)c1ccccc1` is -0.12 K; for `Cc1ccc(OCCCCn2cncn2)c(C)c1` it is 0.08 K.

In the case of `NCCC1(O)CNC1`, the “TSA(without NAD+) / Primary screening (TSA) / delta Tm (K)” value is reported as -0.33 K. The figure for `Cc1cc(C2=NN=C(NCc3ccco3)SC2)c(C)n1Cc1ccc2c(c1)OCO2` is -0.14 K; for `O=c1cc(NCCCc2ccccc2)nc2ccccn12` it is 0.02 K. The figure for `CCOC(=O)c1c(NC(=O)COC(=O)c2ccc(C)c(O)c2)sc(C(=O)N(CC)CC)c1C` is -0.23 K; for `C[C@@H](N)C(N)=O` it is -0.07 K. The figure for `Cc1nn(-c2ccccc2)cc1C=C1C(=O)NC(=S)NC1=O` is 0.05 K.

`NC(=O)c1ccccc1NC(=O)CCN1CCN(c2ncccn2)CC1`: the “TSA(without NAD+) / Primary screening (TSA) / delta Tm (K)” value is recorded as -0.02 K.

On to `CN(CCCc1cc(-c2ccccc2)n(C)n1)C(=O)CCc1c[nH]c2ccccc12`, for which the “TSA(without NAD+) / Primary screening (TSA) / delta Tm (K)” value was -0.24 K. The figure for `O=C(O)c1cccc2ccccc12` is -0.12 K.

Turning to `O=C(Nc1cccc(Cn2[nH]c(=O)ccc2=O)c1)c1cccc(Oc2ccccc2)c1`, the “TSA(without NAD+) / Primary screening (TSA) / delta Tm (K)” value is listed as -0.13 K. With `Cc1cc(C)cc(N(Cc2ccc(C(N)=O)cc2)Cc2ccc(C(N)=O)cc2)c1`, the “TSA(without NAD+) / Primary screening (TSA) / delta Tm (K)” value is recorded as -0.04 K.

As for `O=C(Cn1[nH]c(=O)c2ccccc2c1=O)Nc1cccc(S(=O)(=O)NCc2ccco2)c1`, the “TSA(without NAD+) / Primary screening (TSA) / delta Tm (K)” value is reported as 0.12 K. The figure for `CN1CCC(Sc2ccc3ccccc3c2)C1=O` (stereo not shown) is -0.03 K. On to `CN(c1ccc(C(N)=O)cc1)S(=O)(=O)c1ccc2c(c1)CCC2`, for which the “TSA(without NAD+) / Primary screening (TSA) / delta Tm (K)” value is -0.24 K. The figure for `Cc1ccc(C(=O)OCc2ccc(C(=O)Nc3ccccc3)cc2)cc1` is 0.08 K; for `CCS(=O)(=O)NCC(=O)O` it is -0.07 K; for `CC(C)C(=O)NCCc1ccc(Cl)s1` it is -0.05 K. In the case of `O=C(NC1CC1)c1ccc2[nH]c3c(c2c1)CCCC3`, the “TSA(without NAD+) / Primary screening (TSA) / delta Tm (K)” value is -0.12 K. The figure for `Cc1cc(S(=O)(=O)Nc2ccc(C(=O)NCc3ccccc3-n3cccn3)cc2)ccc1F` is -0.02 K; for `Cc1nnc(C(C)Oc2ccc3c(c2)CCCNC3=O)o1` (stereo not shown) it is -0.15 K; for `NC(=O)C1CCN(c2ncnc3sc4c(c23)CCCC4)CC1` it is 0.28 K. The figure for `COc1ccccc1N1CCN(C(=O)c2ccccc2SCC(=O)NC23CC4CC(CC(C4)C2)C3)CC1` is -0.14 K. The figure for `CC(=O)NS(=O)(=O)c1ccc(NS(=O)(=O)c2cccs2)cc1` is -0.13 K.
